These are yes or no findings as the source states them, for the method shown.
Assays:
[1] = molecular target: KLF4, full-length, unlabelled (human) (UniProt O43474)
[2] = molecular target: KLF4-FlAsH (FlAsH-labelled full-length KLF4) (human) (UniProt O43474)

The chains behind the UniProt entries cited, without tags or fusion partners. Where a name states a change or a piece, a line headed by the entry shows the natural chain unless it says otherwise. A line that says so, or that is headed by a name, gives the form on record, which may keep a tag or linker.
KLF4-FlAsH (FlAsH-labelled full-length KLF4) (O43474-1, form named): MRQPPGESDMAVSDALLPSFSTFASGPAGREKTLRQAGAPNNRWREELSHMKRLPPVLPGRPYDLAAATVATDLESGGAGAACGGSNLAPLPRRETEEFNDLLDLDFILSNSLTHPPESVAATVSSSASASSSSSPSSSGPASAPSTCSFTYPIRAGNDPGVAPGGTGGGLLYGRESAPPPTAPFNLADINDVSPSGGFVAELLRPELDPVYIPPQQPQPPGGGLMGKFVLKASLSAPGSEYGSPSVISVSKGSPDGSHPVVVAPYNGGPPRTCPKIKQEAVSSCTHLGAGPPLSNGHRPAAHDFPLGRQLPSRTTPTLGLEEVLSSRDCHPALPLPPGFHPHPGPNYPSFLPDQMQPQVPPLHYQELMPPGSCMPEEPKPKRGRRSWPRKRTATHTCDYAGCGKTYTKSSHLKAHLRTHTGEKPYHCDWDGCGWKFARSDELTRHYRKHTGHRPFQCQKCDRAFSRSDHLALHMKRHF

| binding [1] | binding [2] | Substance |
| --- | --- | --- |
| no binding (tested: 5 µM) |  | KLF4, full-length, unlabelled (from UniProt O43474-1 1-479) |
|  | no binding | KLF4-FlAsH (FlAsH-labelled full-length KLF4) (from UniProt O43474-1 1-479) |
